The values below come from patent US12350364B2, “Lipid body compositions, products made therefrom, methods of making same, and methods of use” (Xylome Corporation, priority 2019, dated 2025).

A short description of this series: Lidocaine binding and partitioning into lipid bodies (UV 260 nm after 0.2 μm filtration). Type of series: physicochemical. How it is done:
In one example, the absorbance at 260 nm was used for determining Lidocaine binding and partitioning into lipid bodies using a UV spectrophotometry. Lipid bodies were cleared of excipients and antimicrobial preservative by undergoing a 1:10 wash in ethanol followed by rehydration in distilled water. […] Elimination of the background noise and minimizing dilutions improves the absorbance of UV-absorbing drugs such as lidocaine. The methodology used a lidocaine stock of 50 mg in 950 μL (50 mg/mL), which was used to load various concentrations of lidocaine into the lipid-body compositions of the invention.

Turning to `CCN(CC)CC(=O)Nc1c(C)cccc1C` [Lidocaine], the “Lidocaine Bound to Lipid Bodies” value is, setting by setting: (500 μg Lidocaine in Salt (1M NaCl)) 28%; (500 μg Lidocaine in Water) 16%; (Control: 500 μg Lidocaine without Lipid Bodies and Filtered) 0%.
